This is an account of results in paper PMC8501101.

Protein sequences, listed by entry. Tags and fused reporters are not part of them. Lines headed by an entry give the natural chain unless they say otherwise; changes in a name come on top. Residues count along the entry.
ITSN1-S (endogenous, HEK-293T) (Q15811, residues 1-1220): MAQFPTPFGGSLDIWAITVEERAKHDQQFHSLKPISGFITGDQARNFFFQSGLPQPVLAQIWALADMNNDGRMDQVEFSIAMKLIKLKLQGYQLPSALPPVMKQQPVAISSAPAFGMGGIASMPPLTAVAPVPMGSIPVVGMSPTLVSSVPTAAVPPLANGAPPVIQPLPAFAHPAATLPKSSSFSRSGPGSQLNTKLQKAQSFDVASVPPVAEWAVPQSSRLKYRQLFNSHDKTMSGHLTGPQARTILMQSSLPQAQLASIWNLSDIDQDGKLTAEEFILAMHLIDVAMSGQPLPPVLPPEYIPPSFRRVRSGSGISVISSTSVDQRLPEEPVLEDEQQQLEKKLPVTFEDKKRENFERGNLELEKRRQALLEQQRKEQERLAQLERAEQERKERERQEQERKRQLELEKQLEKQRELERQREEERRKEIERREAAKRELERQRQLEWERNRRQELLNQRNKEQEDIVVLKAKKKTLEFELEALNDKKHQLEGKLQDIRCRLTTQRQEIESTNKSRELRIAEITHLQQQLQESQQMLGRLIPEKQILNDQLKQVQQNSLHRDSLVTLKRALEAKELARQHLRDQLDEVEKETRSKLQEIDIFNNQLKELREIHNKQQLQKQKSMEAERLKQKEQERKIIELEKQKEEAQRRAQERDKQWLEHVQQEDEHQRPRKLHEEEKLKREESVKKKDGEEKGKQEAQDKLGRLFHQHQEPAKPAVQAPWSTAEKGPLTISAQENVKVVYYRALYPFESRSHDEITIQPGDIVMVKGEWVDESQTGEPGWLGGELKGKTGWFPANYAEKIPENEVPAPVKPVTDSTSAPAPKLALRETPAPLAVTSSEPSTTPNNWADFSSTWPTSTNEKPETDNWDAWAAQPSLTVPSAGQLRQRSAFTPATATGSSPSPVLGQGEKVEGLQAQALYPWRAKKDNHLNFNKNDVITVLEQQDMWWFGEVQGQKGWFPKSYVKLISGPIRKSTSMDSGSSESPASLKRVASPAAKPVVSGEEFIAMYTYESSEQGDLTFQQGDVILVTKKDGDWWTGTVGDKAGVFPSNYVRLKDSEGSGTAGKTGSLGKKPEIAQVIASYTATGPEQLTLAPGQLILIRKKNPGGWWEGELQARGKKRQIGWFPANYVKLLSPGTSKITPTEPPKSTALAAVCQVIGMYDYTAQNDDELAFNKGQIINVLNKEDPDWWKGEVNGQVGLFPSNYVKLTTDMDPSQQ
ITSN1-S-EH1,2 (1–325 aa), HA and 3×flag-labeled (Q15811, residues 1-325): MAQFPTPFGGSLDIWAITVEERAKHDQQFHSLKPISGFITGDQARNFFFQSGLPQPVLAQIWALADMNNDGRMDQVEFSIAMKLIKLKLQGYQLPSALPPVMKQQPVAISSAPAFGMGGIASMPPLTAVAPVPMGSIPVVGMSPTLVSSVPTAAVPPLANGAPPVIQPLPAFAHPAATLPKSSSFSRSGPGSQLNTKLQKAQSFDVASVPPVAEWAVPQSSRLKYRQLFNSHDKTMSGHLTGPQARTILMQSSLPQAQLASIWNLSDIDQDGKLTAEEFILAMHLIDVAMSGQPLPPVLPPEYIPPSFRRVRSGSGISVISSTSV
UniProt Q08211, residues 1-380: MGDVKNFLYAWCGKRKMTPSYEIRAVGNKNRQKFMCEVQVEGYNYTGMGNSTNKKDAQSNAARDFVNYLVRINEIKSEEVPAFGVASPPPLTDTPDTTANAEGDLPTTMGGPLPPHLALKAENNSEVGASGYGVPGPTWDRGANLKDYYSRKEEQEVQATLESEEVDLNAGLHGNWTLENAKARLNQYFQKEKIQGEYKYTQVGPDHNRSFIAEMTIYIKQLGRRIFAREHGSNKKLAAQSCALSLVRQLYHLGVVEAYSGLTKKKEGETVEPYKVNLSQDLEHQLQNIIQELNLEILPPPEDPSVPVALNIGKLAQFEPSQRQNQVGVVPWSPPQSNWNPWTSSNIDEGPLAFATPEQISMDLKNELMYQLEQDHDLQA
UniProt O00443: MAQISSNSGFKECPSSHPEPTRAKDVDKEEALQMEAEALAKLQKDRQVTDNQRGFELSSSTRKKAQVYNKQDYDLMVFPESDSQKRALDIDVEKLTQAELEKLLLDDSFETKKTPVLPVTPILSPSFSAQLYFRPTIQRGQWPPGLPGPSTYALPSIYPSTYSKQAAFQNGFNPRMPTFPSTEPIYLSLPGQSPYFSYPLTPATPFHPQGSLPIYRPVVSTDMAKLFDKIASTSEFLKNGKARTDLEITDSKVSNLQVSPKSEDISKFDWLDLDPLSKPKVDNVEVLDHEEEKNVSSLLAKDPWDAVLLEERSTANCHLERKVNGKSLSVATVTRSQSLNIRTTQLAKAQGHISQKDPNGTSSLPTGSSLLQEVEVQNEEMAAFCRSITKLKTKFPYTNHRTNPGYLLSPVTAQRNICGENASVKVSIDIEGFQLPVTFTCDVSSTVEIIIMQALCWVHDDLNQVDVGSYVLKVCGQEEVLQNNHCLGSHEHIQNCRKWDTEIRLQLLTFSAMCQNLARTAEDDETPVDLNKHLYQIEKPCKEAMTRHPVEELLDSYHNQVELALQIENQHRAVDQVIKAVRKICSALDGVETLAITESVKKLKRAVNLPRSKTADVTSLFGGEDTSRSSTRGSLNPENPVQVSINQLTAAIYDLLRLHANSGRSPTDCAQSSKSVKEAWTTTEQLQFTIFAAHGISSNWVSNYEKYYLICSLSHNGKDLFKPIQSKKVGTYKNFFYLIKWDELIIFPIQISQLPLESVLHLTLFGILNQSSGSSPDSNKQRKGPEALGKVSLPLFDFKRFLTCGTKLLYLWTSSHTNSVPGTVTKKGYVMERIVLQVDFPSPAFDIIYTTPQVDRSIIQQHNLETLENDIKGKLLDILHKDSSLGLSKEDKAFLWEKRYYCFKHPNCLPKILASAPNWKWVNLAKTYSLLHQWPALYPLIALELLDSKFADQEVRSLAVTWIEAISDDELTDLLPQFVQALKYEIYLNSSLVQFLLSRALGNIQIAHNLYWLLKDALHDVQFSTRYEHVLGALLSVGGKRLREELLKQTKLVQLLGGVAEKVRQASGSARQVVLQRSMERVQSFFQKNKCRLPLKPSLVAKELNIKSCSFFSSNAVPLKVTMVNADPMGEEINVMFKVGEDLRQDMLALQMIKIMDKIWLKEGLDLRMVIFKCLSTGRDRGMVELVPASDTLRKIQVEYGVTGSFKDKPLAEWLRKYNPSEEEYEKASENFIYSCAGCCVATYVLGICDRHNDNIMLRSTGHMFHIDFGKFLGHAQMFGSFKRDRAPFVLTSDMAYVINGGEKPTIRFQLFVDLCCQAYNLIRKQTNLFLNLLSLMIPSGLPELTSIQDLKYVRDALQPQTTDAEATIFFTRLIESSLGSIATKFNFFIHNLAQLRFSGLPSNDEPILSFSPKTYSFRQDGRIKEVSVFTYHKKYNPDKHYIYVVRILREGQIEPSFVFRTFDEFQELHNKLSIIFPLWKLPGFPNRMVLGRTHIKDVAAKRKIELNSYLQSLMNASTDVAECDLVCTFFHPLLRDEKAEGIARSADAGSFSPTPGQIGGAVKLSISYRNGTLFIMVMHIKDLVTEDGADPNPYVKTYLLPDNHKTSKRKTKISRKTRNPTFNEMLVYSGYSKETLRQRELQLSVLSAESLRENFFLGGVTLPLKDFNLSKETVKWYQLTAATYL

No constants are given. Whether binding was seen depends on the method and setting. In cells and extracts the contact can be indirect. Some results given as binding are weak or reduced against the parent protein; the word gives no strength.

The target in assay [1] is ITSN1-S-EH1,2 (1–325 aa), HA and 3×flag-labeled (human) (UniProt Q15811). The assay can be described thus: co-IP; 3×flag and HA-labeled fragments of ITSN1-S or NDH II expressed in HEK-293T; cellular extracts, IP with anti-flag M2 affinity gel; Western blot for ITSN1-S, NDH II or PI3KC2α.
In assay [2] the target is 3×flag-labeled wild-type ITSN1-S (intersectin1 short isoform) (human) (UniProt Q15811). The assay can be described thus: co-IP; IP from cell lysates with anti-flag M2 affinity gel (flag-tagged ITSN1-S), and for NDH II also with antibodies against NDH II or control IgG; Western blot.
In assay [3] the target is NDH II-NT (1–380 aa), HA and 3×flag-labeled (UniProt Q08211). The assay can be described thus: co-IP; 3×flag and HA-labeled fragments of ITSN1-S or NDH II expressed in HEK-293T; cellular extracts, IP with anti-flag M2 affinity gel; Western blot for ITSN1-S, NDH II or PI3KC2α.

As for PI3KC2α (from UniProt O00443 1-1686), the binding result in assay [1] and in assay [2] was “binds” in each case.

Regarding “ITSN1-S (endogenous, HEK-293T) (from UniProt Q15811-2 1-1220)”, the binding entry in assay [3] is recorded as “binds”.
